In patent US4725581A, “New peptide compounds having a lactone or cycloamide structure” (ADIR et Compagnie, priority 1985, dated 1988):
Part of at least one peptide drawing is inferred or uncertain, most often the ends.

Test system: mice
Experiment: Potentialisation of the toxicity of Yohimbine
Assay type: in vivo
Conditions: 10 mg/kg i.p. 15 minutes before Yohimbine 35 mg/kg i.p.
Method: Yohimbine, injected to mice at a dose of 35 mg/kg i.p. causes the death of 10% to 30% treated animals. The compounds of the invention administered at a dose of 10 mg/kg i.p. 15 minutes before the injection of Yohimbine increase the rate of mortality (+80% with compounds of examples 5 and 7).

NC(=O)[C@@H]1C2CCC(CC2)N1C(=O)[C@H](Cc1c[nH]cn1)NC(=O)[C@@H]1CCC(=O)N1 [Example 5, (S)PyroGlu--(S)His--(S)ABO--NH2]
increase of the rate of mortality caused by Yohimbine: +80%

NC(=O)[C@@H]1C2CCC(CC2)N1C(=O)[C@H](Cc1c[nH]cn1)NC(=O)[C@@H]1CCCC(=O)N1 [Example 7, (S)HomoPyroGlu--(S)His--(S)ABO--NH2]
increase of the rate of mortality caused by Yohimbine: +80%
